pKi: −log10 of the molar value. At least one peptide structure holds a part that was inferred or is arguable (an end, a ring closure or a residue).
Biological target: T1, Bovine Pancreatic Kallikrein (Bos taurus, UniProt Q6H320)
T1 construct: purchased Bayer AG
Test: Inhibition of bovine pancreatic kallikrein, substrate PFR-AMC
Type: biochemical
Details: Bovine Pancreatic Kallikrein (92.0 pM); PFR-AMC (0.1 mM)

Chains of the proteins cited; added tags and fusions are not shown. Residues count along the entry.
UniProt Q6H320, 25-261 limits assumed: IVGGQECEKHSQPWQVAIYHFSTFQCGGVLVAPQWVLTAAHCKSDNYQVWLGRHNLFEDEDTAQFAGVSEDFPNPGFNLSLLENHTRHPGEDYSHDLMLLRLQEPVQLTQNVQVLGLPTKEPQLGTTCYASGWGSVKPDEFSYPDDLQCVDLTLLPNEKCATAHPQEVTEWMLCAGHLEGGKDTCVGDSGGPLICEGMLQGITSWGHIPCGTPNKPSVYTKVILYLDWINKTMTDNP

CC[C@H](C)[C@H](N)C(=O)N[C@@H](Cc1c[nH]cn1)C(=O)N[C@@H](CC(=O)O)C(=O)N[C@@H](Cc1ccccc1)C(=O)N[C@H]1CSSC[C@@H](C(=O)N[C@@H](C)C(=O)N[C@H](C(=O)N[C@H](C(=O)O)C(C)C)[C@@H](C)O)NC(=O)[C@H](CCCCN)NC(=O)[C@H](CCCCN)NC(=O)[C@H](CC(C)C)NC(=O)[C@@H]2CSSC[C@@H]3NC(=O)[C@H](CO)NC(=O)CNC(=O)[C@H](CC(=O)O)NC(=O)[C@H]([C@@H](C)O)NC(=O)[C@H](C(C)C)NC(=O)[C@H](CC(N)=O)NC(=O)[C@H](Cc4ccc(O)cc4)NC(=O)[C@H](Cc4c[nH]c5ccccc45)NC(=O)[C@H](Cc4c[nH]c5ccccc45)NC(=O)[C@H](CCCNC(=N)N)NC(=O)[C@@H]4CCCN4C(=O)[C@H](CCSC)NC(=O)[C@H](CO)NC(=O)[C@H](C)NC(=O)[C@H](CCCNC(=N)N)NC(=O)[C@H](CSSC[C@H](NC(=O)CNC(=O)CNC(=O)[C@H](Cc4ccc(O)cc4)NC(=O)[C@H](C(C)C)NC(=O)[C@H](Cc4ccccc4)NC(=O)[C@H](CC(C)C)NC(=O)[C@H](CCC(N)=O)NC3=O)C(=O)N[C@@H](CC(=O)O)C(=O)NCC(=O)N[C@@H](CC(N)=O)C(=O)N[C@@H](CO)C(=O)N[C@@H](CC(N)=O)C(=O)N[C@@H](CC(N)=O)C(=O)N[C@@H](Cc3ccc(O)cc3)C(=O)N[C@@H](CC(C)C)C(=O)N[C@@H]([C@@H](C)O)C(=O)N[C@@H](CCCCN)C(=O)N[C@@H](CCC(=O)O)C(=O)N[C@@H](CCC(=O)O)C(=O)N2)NC(=O)[C@H](CCCNC(=N)N)NC(=O)CNC(=O)[C@H](C(C)C)NC(=O)[C@H](C(C)C)NC(=O)[C@H](CCCCN)NC(=O)[C@H](CO)NC(=O)[C@H](C(C)C)NC(=O)[C@H](CC(C)C)NC1=O [bikunin(7-64)]
pKi: 9.40
